# Experimental data taken from PubChem BioAssay AID493014 (National Center for Advancing Translational Sciences (NCATS), 2011).
# This is one part of the list. These are further read-outs of the screen, such as a control signal, another cell line or another target. No call is given for them. The list favours compounds with an active or inconclusive main result. The note in brackets gives the kind of curve behind each potency; many fits are weak.
# Assay: qHTS Assay to Find Inhibitors of Chronic Active B-Cell Receptor Signaling
# Settings: ABC-DLBCL IkBa-CBG/CBR reporter, luminescence ratio (green luciferase fused to IkBa over red control in TMD8 lymphoma cells), 4 h
# Outline: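 TMD8 ABC-DLBCL cells carrying doxycycline-inducible green luciferase fused to IkappaBalpha plus unfused red luciferase were exposed to compounds (up to 46 uM) for 4 hrs at 37C. Activity came from the overlap-corrected green/red luminescence ratio.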
# [1] = measured here: CBR red luminescence, cell number
# [2] = measured here: IkBa-CBG green luminescence
SMILES,AC50 [1],AC50 [2]
CCc1ccc(/C=C2\SC(=S)N(CCCC(=O)Nc3ccccc3C(=O)O)C2=O)cc1,"7.08 µM [falling, partial curve, poor fit]",–
COCCn1ccc2c(OCC(=O)Nc3ccccc3OC)cccc2c1=O,"1.64 µM [falling, partial curve]",–
COc1cccc(-c2nnn(CC(C)=O)n2)c1,"23.1 µM [rising, single point]",–
COc1ccccc1-c1nnc(C2CCN(S(=O)(=O)c3ccccc3[N+](=O)[O-])CC2)o1,"0.355 µM [falling, full curve]",–
Cc1nn(Cc2ccc(Cl)cc2)c(C)c1NC(=O)c1ccc([N+](=O)[O-])cc1,"32.6 µM [falling, partial curve, poor fit]",–
O=C1CS/C(=C/C(=O)c2cccc(Cl)c2)N1,"35.5 µM [falling, single point]",–
O=C(Cc1csc(-c2ccc(F)cc2)n1)Nc1cccc(S(=O)(=O)NC2=NCCC2)c1,"10.3 µM [falling, partial curve]",–
CC(=O)Oc1ccc(-c2cccc(C(=O)Oc3ccccc3)c2)cc1,"0.00411 µM [rising, full curve, poor fit]",–
CCOC(=O)c1c(NC(=O)CN2C(=O)NC3(CCCC3)C2=O)sc(C)c1CC,"32.6 µM [falling, single point]",–
N#Cc1ccc(-c2cccs2)nc1SCc1cccnc1,"12.6 µM [rising, partial curve]","11.2 µM [falling, partial curve]"
CCS(=O)(=O)n1nc(-c2ccc(OC)cc2)nc1N,"3.16 µM [rising, full curve]",–
CC(=O)N/C(=C/c1ccccc1)c1ccccc1,"16.4 µM [rising, partial curve, poor fit]",–
Cc1oc(-c2ccc(Cl)cc2)nc1CN1CCC(C(=O)NCCCN2CCCC(C)C2)CC1 (stereo not drawn),"14.1 µM [falling, partial curve, poor fit]",–
CCOc1cc(/C=N/NC(=O)c2nn(C)cc2Br)ccc1OCc1ccccc1,"5.17 µM [falling, partial curve, poor fit]",–
COc1ccc(C(C(=O)NCc2ccccc2)N(C(=O)c2snc(C(N)=O)c2N)C2CCCC2)cc1O (stereo not drawn),–,"11.2 µM [falling, partial curve, poor fit]"
O=C(O)COc1ccc(/C=N/NC(=O)C2CCCN2S(=O)(=O)c2ccc(Cl)cc2)cc1 (stereo not drawn),"29.1 µM [falling, single point]",–
CCn1cc(C(=O)NCCc2ccccc2)c(=O)c2cc(S(=O)(=O)N(C)C)ccc21,"0.562 µM [rising, full curve, poor fit]",–

# For convenience, 2 of the compounds above.
SMILES,AC50 [1],AC50 [2]
O=C(O)COc1ccc(/C=N/NC(=O)C2CCCN2S(=O)(=O)c2ccc(Cl)cc2)cc1 (stereo not drawn),"29.1 µM [falling, single point]",–
CCn1cc(C(=O)NCCc2ccccc2)c(=O)c2cc(S(=O)(=O)N(C)C)ccc21,"0.562 µM [rising, full curve, poor fit]",–
